Test results from the M2OR odorant receptor database.
This is a selection; strong and weak results do not stand in their true shares. The calls were merged from several studies; some rest on single wells. The list shows a part of the results.

Experiments:
Conditions in all cases: stereoisomer not certain
[1] = tested on: T1, OR6C4
T1 sequence (whole entry): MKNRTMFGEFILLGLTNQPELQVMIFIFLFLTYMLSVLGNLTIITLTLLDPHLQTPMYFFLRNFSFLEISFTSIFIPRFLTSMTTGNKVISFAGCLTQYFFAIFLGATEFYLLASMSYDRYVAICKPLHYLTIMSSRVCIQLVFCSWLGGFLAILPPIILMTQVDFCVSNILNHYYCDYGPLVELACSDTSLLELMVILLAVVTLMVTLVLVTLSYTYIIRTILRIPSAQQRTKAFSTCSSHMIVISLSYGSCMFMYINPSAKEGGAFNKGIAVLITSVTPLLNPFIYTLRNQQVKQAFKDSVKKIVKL
Outline: (§1)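 Each entry records the cell line, G-protein, co-transfected protein and tags used. Methods varied with the source, often transient luciferase assays in mammalian cell lines. A receptor–molecule pair is called responsive (active) if the original authors judged its signal statistically different from baseline and non-responsive (inactive) otherwise.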

[2] = target: T2, OR6C6 (Homo sapiens) (UniProt A6NF89)
T2 sequence (whole entry): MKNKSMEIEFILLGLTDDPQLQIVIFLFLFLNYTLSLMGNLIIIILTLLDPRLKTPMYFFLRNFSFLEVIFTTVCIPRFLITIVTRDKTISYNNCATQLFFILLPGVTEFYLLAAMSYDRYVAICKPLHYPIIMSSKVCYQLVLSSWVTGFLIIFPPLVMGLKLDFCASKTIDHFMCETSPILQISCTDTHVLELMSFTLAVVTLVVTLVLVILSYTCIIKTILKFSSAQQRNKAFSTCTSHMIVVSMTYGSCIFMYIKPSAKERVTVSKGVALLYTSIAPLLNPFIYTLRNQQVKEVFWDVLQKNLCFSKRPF
Outline: as §1

[3] = target: T3, OR6C65 (Homo sapiens) (UniProt A6NJZ3)
T3 sequence (whole entry): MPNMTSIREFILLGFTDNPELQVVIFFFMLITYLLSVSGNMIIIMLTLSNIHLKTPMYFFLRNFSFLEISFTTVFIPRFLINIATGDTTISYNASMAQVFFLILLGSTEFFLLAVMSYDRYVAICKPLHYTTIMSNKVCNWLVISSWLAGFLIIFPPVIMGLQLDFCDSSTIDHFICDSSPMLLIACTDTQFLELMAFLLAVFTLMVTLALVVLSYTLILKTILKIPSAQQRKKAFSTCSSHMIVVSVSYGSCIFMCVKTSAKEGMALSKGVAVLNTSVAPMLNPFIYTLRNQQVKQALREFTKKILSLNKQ
Outline: as §1

[4] = target: T4, OR6C74 (Homo sapiens) (UniProt A6NCV1)
T4 sequence (whole entry): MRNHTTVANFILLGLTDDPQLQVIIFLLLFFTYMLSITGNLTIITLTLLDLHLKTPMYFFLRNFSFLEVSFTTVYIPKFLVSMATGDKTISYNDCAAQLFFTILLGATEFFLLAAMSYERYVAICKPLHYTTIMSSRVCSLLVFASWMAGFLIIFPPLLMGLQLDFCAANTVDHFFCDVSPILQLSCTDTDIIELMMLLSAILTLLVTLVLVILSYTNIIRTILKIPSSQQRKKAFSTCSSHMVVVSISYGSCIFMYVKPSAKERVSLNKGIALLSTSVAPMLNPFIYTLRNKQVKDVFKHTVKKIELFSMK
Outline: as §1

[5] = target: T5, OR6C75 (Homo sapiens) (UniProt A6NL08)
T5 sequence (whole entry): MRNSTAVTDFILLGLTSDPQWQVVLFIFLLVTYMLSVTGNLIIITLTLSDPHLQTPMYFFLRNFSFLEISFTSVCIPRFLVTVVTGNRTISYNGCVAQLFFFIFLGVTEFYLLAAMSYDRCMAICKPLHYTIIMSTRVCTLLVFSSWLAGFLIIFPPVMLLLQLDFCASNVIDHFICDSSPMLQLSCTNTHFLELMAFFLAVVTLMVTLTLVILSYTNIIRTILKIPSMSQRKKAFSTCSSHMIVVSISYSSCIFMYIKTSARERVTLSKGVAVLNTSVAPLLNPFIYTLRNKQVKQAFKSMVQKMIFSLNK
Outline: as §1

[6] = target: T6, OR6C76 (Homo sapiens) (UniProt A6NM76)
T6 sequence (whole entry): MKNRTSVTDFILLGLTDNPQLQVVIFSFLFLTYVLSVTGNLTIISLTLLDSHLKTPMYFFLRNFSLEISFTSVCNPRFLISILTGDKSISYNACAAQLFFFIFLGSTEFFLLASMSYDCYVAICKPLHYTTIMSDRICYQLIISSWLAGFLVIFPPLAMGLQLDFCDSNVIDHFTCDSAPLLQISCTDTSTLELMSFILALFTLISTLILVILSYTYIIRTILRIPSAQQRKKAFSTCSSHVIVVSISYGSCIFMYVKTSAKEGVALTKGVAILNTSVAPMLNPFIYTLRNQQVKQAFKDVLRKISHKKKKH
Outline: as §1

[7] = target: T7, OR6F1 (Homo sapiens) (UniProt Q8NGZ6)
T7 sequence (whole entry): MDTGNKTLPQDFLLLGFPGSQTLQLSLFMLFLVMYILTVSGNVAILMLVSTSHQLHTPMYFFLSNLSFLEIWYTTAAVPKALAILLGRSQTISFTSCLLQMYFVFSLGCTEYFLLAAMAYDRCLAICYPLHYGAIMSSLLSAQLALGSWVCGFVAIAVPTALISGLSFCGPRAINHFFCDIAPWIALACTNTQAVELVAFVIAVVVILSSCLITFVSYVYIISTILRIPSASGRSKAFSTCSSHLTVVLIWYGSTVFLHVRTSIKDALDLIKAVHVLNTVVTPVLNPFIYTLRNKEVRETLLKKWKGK
Outline: as §1

Measured: odorant receptor agonist call

c1cnccn1
inactive: all assays above

CC(C)CC(=O)O
inactive: all assays above

CC12CCC(CC1)C(C)(C)O2
inactive: all assays above

CC(C)(C)c1ccc(CCC=O)cc1
inactive: all assays above

CC(C)CCC(=O)O
inactive: all assays above

No new results follow: two of the compounds above.
CC12CCC(CC1)C(C)(C)O2
inactive: all assays above

CC(C)(C)c1ccc(CCC=O)cc1
inactive: all assays above

Later entries.

CCCCCC(C)=O
inactive: all assays above

CCCCCOC(C)=O
active: [7]
inactive: all other assays above

COc1cc(C)ccc1O
inactive: all assays above

CCCCCCCCCC=O
inactive: all assays above

CCC1(O)C2(C)CCC(C2)C1(C)C (stereo not given)
inactive: all assays above

CC(=O)OC(C)(C)C1CC=C(C)CC1 (stereo not given)
inactive: all assays above

CC=Cc1ccc(O)c(OC)c1
inactive: all assays above

c1ccc(Oc2ccccc2)cc1
inactive: all assays above

CCCCCC(=O)O
inactive: all assays above

CC1=NC(C)SC1C (stereo not given)
inactive: all assays above

CCCCCCCC=CC=O
active: [7]
inactive: all other assays above

COc1ccccc1O
inactive: all assays above

C=CCc1ccc(OC)c(OC)c1
inactive: all assays above

CC(C)=CCCC(C)=CC=O
inactive: all assays above

CC(=O)c1ccccc1
inactive: all assays above

CC(C)C(=O)O
inactive: all assays above

O=CCc1ccccc1
inactive: all assays above

CCC=CCCO
inactive: all assays above

CC(C)C=O
inactive: all assays above

CC1CCC(C(C)C)C(O)C1 (stereo not given)
active: [3] | [5]
inactive: all other assays above
